Laboratory results reported in the supplement of paper PMC10849652.
The list shows a part of the results.

The chains behind the UniProt entries cited, without tags or fusion partners. Where a name states a change or a piece, a line headed by the entry shows the natural chain unless it says otherwise.
UniProt P53634: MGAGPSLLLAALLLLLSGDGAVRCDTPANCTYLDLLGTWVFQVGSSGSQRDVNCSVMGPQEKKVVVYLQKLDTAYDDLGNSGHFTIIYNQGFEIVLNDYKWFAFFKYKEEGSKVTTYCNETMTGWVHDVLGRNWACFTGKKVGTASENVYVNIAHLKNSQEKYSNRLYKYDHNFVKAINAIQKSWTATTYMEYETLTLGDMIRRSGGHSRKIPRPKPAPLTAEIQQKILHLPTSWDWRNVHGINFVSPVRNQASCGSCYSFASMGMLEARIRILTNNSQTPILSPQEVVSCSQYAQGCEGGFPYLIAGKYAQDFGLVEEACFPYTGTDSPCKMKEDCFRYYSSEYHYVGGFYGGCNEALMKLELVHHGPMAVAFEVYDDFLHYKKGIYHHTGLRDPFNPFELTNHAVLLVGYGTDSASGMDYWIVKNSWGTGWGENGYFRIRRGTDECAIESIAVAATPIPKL
UniProt Q14247: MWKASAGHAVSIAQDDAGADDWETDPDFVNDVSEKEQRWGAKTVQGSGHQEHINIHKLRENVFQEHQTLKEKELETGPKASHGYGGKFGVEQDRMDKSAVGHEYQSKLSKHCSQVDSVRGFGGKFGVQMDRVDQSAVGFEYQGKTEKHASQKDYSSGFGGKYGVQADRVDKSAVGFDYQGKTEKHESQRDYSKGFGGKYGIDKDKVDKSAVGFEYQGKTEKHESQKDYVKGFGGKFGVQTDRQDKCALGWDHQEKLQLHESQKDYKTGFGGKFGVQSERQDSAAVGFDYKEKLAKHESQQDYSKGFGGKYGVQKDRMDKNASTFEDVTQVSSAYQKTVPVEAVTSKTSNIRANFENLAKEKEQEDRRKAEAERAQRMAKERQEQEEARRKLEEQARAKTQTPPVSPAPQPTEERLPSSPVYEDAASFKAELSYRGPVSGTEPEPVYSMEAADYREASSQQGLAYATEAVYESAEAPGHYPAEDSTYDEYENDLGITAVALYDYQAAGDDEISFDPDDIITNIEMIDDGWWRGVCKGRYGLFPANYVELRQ
UniProt Q5TZA2: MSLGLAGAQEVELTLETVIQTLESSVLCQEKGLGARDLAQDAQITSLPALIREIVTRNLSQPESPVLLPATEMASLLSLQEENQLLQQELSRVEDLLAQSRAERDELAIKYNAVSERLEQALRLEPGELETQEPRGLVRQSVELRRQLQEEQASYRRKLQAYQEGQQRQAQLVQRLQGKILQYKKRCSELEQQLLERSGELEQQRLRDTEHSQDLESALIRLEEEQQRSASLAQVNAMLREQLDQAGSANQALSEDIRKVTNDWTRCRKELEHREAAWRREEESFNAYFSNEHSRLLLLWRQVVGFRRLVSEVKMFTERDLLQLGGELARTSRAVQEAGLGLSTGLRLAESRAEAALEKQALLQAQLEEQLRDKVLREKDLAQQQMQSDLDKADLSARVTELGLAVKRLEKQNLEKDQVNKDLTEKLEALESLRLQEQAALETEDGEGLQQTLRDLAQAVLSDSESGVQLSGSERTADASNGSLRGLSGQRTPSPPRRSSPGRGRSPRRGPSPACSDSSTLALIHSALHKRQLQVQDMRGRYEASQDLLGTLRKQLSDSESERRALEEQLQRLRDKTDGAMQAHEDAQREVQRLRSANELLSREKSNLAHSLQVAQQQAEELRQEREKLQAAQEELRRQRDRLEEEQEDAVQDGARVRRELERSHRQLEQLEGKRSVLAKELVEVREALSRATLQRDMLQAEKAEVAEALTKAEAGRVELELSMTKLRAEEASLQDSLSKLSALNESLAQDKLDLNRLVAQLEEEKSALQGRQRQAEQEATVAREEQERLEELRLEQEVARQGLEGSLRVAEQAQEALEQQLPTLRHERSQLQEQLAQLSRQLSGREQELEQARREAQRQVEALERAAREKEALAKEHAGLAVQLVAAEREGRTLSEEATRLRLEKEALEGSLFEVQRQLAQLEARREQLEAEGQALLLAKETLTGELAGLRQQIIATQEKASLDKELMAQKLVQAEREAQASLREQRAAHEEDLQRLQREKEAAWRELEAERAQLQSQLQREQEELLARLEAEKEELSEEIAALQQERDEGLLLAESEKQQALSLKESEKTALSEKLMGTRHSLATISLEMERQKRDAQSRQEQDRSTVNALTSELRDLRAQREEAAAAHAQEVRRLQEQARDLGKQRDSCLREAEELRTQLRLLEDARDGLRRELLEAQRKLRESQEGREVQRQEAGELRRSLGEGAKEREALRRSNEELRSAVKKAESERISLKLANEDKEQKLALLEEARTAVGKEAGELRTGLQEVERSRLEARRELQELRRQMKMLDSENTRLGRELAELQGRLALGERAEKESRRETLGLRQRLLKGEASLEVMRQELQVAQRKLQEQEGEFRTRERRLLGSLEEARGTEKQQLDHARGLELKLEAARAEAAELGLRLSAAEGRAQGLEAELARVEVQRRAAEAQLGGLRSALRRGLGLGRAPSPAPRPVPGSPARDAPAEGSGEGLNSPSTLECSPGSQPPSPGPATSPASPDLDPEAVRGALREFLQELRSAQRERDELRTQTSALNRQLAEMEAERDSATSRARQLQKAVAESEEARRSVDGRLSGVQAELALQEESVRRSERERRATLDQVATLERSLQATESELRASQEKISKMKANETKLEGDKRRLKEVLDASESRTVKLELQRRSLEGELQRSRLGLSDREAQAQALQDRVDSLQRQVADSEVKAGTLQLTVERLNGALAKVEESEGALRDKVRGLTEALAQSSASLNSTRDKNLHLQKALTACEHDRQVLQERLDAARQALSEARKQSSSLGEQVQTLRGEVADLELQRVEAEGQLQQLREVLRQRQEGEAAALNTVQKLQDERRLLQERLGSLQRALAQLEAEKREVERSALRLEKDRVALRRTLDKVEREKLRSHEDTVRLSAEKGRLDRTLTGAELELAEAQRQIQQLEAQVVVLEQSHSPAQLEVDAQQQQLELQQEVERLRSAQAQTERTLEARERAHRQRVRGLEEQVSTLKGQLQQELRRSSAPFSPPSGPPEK
UniProt P50461: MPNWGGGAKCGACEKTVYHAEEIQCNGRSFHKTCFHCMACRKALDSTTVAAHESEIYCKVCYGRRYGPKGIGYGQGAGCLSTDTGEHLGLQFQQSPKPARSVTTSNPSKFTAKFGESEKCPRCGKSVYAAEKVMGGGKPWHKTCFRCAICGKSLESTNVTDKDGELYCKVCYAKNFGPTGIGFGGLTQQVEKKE
UniProt P21291: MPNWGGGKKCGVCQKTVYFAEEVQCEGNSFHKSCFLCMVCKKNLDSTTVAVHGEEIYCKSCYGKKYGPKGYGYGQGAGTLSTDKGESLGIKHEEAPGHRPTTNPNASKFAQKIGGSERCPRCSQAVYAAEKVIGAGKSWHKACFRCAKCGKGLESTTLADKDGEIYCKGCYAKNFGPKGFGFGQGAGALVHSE
UniProt P99999: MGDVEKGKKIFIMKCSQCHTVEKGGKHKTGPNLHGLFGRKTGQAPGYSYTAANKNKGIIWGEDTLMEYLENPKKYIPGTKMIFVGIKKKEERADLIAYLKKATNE
UniProt O43310: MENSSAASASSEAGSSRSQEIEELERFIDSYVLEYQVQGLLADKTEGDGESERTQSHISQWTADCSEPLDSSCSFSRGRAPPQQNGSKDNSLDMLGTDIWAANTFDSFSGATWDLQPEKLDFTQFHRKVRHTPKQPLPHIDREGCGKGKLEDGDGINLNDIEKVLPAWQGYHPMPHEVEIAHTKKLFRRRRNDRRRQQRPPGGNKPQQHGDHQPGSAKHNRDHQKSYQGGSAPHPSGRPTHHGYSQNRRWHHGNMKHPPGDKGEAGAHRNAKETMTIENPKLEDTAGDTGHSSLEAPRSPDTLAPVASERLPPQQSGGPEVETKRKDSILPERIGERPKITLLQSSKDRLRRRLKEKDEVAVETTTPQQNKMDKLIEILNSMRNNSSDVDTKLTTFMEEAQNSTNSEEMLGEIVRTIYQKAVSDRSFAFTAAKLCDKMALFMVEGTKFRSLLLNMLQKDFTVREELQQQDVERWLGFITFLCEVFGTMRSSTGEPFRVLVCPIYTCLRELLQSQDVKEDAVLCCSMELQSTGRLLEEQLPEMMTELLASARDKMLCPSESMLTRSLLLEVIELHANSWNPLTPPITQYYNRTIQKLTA
UniProt P16220: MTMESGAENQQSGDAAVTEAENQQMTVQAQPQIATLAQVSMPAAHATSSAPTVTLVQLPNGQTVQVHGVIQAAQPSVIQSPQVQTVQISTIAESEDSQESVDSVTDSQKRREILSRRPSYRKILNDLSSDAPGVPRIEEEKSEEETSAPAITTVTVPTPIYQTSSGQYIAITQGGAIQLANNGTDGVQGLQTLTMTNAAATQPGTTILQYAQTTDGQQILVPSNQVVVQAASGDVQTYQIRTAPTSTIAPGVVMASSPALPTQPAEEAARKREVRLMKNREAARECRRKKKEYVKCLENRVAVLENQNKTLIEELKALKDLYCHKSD
UniProt P13498: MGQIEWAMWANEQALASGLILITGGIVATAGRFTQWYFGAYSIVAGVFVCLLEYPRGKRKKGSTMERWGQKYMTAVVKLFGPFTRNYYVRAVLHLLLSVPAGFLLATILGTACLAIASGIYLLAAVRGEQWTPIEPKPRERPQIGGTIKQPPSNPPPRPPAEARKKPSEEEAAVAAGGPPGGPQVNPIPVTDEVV
UniProt P01034: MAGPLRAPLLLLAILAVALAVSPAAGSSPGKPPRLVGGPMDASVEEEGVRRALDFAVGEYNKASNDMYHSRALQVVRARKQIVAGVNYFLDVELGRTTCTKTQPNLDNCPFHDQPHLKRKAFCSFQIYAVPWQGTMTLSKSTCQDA
UniProt Q12996: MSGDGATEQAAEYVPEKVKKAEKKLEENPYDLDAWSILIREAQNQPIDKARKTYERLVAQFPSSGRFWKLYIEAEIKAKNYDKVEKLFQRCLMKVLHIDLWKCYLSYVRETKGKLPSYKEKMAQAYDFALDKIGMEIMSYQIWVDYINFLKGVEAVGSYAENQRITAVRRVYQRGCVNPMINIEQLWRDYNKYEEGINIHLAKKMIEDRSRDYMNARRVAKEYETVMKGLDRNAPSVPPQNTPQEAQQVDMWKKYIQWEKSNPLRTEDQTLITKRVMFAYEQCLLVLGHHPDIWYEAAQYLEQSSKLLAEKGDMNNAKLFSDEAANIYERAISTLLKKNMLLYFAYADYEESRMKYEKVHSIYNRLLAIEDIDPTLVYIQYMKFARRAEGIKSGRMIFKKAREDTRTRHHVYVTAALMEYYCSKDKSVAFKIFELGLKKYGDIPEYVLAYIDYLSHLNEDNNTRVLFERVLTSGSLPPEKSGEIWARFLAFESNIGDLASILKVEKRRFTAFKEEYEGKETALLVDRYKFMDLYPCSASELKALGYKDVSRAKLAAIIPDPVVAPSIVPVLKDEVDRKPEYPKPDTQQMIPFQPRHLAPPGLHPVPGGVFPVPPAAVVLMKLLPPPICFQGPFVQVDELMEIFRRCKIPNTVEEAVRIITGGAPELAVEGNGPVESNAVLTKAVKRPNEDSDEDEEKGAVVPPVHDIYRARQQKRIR
UniProt P48729: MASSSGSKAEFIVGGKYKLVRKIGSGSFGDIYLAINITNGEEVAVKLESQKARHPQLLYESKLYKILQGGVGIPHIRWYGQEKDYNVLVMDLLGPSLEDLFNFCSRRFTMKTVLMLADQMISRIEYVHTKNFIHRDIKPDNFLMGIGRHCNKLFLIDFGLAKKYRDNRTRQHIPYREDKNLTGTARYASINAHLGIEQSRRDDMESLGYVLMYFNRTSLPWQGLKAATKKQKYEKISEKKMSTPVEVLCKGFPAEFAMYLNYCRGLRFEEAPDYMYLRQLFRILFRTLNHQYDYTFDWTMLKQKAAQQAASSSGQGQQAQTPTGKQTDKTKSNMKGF
UniProt Q9NRF8: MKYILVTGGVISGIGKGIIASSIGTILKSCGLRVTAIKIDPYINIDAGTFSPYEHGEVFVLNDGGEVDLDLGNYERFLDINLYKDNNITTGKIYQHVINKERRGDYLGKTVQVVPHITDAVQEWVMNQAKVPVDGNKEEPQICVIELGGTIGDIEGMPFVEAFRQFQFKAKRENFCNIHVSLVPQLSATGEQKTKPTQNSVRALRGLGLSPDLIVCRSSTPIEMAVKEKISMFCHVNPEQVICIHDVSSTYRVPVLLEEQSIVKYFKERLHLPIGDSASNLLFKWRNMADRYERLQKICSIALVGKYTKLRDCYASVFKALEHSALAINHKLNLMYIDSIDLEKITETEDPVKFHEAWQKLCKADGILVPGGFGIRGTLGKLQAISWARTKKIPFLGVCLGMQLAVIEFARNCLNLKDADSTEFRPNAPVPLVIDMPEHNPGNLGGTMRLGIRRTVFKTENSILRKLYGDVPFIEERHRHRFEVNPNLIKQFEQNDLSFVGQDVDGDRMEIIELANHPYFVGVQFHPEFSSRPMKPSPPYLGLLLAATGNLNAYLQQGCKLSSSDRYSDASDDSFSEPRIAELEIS

What follows are targets tested with O=C(CCCCCCC(=O)Nc1ccccc1)NO [vorinostat] (assay: log2 fold change, soluble protein after heating vs DMSO (PISA); higher = thermal stabilisation; K562 lysate, 10 uM; active = over 0.2 and 3.5 SD of the protein, either way, in both replicates (recomputed)).
Outline: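 Log-two fold change in thermal stability relative to solvent controls is reported from duplicates. For each sample, crude K562 extract from dounce-homogenised pellets in PBS pH 7.4 with 1 mM MgCl2, at 1 mg/mL protein, was treated with 10 μM compound for 30 min. Aliquots heated for 3 min across 48°C-58°C were pooled, brought to 0.5% NP-40 at 4°C and cleared at 21,000xg for 90 min. The supernatant was quantified by TMTpro 16plex LC-MS/MS with channel sums equalised.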

log2 fold change, inactive:
CTSC (UniProt P53634) 0.047, CTTN isoform 2 (UniProt Q14247) 0.102, CSPG5 isoform 2 (UniProt O95196) 0.269, CUL5 (UniProt Q93034) 0.019, CROCC (UniProt Q5TZA2) 0.083, CSRP3 (UniProt P50461) 0.087, CTNNB1 (UniProt P35222) -0.026, CSPP1 (UniProt Q1MSJ5) 0.085, CSRP1 (UniProt P21291) 0.094, CYCS (UniProt P99999) 0.114, CTIF isoform 2 (UniProt O43310) 0.082, CTC1 (UniProt Q2NKJ3) -0.302, CREB1 (UniProt P16220) 0.07, CYBA (UniProt P13498) 0.116, CST3 (UniProt P01034) 0.185, CTNNAL1 (UniProt Q9UBT7) -0.262, CYBRD1 (UniProt Q53TN4) 0.078, CTSH (UniProt P09668) 0.067, CTNNBL1 (UniProt Q8WYA6) -0.046, CREG1 (UniProt O75629) 0.115, CSTF3 (UniProt Q12996) -0.101

log2 fold change, active:
CSNK1A1 (UniProt P48729) -0.276, CTPS2 (UniProt Q9NRF8) 0.327
